For the assay, the target named is T1, calcium channel (Cavia porcellus, UniProt A0A286X7I0).
T1 construct: guinea-pig skeletal muscle membranes; from tissue; host or cells: guinea-pig skeletal muscle membranes
Put plainly: Affinity to the calcium channel: inhibition of specific (S)-3H-devapamil binding to guinea-pig skeletal muscle membranes. Particulars: 1 nM (S)-3H-devapamil, pH 7.4, 20° C., 60 minutes, read-out: Test 3 Ki. How it is done:
3. Affinity of the test substances to the calcium channel.
The affinity of the test substances to the calcium channel was determined by inhibition of the specific (S)-^3 H-devapamil binding to guinea-pig skeletal muscle membranes (FEBS Lett. 176, 371 (1984)). For this, the membranes were incubated with a fixed concentration of 1 nM (S)-^3 H-devapamil and increasing concentrations of test substance in 50 mM tris-HCl/0.1 mM phenylmethylsulfonyl fluoride, (pH 7.4) at 20° C. for 60 minutes. The non-specific binding was determined using 10^-6 M (S)-devapamil. The mixtures were then filtered through glass fiber filters, and the amount of (S)-^3 H-devapamil retained on the filter was determined by liquid scintillation measurement. The Ki values were determined by non-linear regression analysis.

Protein sequences, listed by entry. Tags and fused reporters are not part of them. Residues count along the entry.
UniProt A0A286X7I0, 1-1867: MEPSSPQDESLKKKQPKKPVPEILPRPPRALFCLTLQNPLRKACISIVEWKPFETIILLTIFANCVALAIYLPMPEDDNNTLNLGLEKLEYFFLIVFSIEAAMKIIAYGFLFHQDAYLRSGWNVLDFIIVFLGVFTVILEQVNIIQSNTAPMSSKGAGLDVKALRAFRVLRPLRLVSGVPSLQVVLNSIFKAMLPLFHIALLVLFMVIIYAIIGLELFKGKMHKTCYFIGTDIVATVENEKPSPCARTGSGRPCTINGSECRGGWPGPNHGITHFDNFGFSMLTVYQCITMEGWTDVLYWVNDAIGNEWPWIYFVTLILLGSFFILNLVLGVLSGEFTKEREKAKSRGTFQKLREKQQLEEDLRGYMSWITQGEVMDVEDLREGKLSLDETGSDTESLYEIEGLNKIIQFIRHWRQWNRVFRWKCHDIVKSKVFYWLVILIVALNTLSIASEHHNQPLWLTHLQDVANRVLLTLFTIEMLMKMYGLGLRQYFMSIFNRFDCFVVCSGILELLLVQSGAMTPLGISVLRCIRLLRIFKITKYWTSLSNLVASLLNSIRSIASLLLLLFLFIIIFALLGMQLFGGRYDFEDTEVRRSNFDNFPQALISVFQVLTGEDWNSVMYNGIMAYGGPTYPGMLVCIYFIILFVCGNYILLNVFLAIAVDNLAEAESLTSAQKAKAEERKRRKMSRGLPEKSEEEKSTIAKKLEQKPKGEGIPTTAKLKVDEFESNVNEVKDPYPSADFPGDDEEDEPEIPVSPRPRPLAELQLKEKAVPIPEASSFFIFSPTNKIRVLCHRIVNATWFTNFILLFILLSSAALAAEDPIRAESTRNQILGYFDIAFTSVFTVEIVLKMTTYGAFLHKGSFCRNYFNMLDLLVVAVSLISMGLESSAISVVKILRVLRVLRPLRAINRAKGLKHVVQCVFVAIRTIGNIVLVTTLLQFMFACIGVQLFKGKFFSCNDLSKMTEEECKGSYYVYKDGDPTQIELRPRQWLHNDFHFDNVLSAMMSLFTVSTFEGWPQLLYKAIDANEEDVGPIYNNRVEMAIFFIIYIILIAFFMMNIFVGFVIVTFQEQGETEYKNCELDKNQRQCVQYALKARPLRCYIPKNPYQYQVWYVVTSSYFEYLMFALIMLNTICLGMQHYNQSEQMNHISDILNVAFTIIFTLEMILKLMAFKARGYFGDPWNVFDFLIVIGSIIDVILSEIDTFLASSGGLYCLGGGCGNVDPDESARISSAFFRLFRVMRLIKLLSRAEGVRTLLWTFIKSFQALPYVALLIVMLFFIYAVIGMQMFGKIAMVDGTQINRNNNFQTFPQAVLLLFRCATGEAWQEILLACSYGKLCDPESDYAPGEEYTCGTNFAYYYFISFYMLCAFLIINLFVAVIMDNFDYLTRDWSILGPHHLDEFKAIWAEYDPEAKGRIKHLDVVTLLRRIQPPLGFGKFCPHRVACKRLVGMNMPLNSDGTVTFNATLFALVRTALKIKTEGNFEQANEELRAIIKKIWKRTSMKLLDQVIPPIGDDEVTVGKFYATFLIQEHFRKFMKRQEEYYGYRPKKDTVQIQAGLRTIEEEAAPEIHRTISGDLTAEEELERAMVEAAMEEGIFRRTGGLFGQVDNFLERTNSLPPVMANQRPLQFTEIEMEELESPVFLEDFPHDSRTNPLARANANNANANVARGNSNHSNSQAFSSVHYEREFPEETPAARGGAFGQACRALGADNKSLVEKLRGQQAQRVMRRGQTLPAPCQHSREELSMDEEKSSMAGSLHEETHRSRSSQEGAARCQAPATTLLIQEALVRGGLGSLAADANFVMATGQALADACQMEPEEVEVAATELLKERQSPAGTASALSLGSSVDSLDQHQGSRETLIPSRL

SMILES strings stand for the structures. pKi: −log10 of the molar value.

`Fc1ccc(C(c2ccc(F)cc2)N2CCN(C/C=C/c3ccccc3)CC2)cc1` [flunarizine, reference compound]: the pKi is 6.54.

The record behind these values is US5342839A, “2-hydroxy-3-phenoxy-propyl-substituted piperazines, their preparation and use” (BASF Aktiengesellschaft, priority 1988, dated 1994).
